These are yes or no findings as the source states them, for the method shown. Some binding calls cover weakened binding; strength is not graded here. For some of these results: Where a sequence is shown, tags or fusion partners need not be part of it.

Amino acid sequences for entries named in this document (tags omitted). Residues count along the entry.
UniProt Q9NSA1, residues 29-209: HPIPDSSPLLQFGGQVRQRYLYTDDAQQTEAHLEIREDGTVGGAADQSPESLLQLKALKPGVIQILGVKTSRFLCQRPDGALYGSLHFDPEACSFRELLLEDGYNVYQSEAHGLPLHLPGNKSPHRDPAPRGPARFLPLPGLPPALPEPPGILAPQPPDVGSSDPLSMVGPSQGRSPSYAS
UniProt Q80TS3, residues 20-1537: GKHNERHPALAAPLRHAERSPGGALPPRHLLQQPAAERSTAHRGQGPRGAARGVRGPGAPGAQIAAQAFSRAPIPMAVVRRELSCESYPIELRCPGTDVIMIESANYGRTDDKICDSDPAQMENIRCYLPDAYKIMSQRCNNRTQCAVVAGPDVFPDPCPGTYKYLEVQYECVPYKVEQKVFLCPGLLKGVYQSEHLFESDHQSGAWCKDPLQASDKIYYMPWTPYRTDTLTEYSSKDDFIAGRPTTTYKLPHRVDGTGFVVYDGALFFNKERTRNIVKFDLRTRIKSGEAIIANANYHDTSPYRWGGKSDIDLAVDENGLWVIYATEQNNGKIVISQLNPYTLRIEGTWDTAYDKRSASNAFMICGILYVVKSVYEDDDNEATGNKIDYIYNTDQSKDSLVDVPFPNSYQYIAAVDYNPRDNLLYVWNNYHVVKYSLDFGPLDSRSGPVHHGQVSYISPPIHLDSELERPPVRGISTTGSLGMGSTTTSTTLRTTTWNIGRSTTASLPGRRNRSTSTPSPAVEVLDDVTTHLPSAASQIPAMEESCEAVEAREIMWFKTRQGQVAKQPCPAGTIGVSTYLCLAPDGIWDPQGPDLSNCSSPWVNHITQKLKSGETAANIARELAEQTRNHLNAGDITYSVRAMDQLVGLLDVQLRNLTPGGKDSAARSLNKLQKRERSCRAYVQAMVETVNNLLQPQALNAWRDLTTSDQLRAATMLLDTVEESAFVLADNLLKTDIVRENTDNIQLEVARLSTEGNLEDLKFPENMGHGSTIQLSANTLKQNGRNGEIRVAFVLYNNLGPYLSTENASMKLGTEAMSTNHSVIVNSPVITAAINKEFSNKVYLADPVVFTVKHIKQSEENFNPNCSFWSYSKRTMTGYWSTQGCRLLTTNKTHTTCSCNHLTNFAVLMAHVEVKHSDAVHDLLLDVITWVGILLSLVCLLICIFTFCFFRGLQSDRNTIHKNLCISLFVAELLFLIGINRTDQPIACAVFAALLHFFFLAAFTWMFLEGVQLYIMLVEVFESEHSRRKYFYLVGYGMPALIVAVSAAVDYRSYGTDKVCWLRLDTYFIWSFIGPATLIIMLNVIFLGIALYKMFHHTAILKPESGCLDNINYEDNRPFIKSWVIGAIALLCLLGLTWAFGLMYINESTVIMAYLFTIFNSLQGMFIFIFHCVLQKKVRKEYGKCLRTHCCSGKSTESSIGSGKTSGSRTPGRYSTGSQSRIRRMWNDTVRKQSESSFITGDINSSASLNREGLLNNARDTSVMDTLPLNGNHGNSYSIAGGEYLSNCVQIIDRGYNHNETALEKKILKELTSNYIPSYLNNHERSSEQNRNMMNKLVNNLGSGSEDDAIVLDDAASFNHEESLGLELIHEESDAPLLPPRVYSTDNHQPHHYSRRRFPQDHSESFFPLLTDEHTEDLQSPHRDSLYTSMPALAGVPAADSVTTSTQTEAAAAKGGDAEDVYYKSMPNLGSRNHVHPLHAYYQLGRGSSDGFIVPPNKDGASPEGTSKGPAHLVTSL
UniProt Q00604, residues 25-133: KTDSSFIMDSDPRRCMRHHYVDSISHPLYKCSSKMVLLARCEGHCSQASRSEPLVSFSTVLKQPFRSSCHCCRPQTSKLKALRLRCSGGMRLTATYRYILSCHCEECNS
UniProt Q8BSQ9: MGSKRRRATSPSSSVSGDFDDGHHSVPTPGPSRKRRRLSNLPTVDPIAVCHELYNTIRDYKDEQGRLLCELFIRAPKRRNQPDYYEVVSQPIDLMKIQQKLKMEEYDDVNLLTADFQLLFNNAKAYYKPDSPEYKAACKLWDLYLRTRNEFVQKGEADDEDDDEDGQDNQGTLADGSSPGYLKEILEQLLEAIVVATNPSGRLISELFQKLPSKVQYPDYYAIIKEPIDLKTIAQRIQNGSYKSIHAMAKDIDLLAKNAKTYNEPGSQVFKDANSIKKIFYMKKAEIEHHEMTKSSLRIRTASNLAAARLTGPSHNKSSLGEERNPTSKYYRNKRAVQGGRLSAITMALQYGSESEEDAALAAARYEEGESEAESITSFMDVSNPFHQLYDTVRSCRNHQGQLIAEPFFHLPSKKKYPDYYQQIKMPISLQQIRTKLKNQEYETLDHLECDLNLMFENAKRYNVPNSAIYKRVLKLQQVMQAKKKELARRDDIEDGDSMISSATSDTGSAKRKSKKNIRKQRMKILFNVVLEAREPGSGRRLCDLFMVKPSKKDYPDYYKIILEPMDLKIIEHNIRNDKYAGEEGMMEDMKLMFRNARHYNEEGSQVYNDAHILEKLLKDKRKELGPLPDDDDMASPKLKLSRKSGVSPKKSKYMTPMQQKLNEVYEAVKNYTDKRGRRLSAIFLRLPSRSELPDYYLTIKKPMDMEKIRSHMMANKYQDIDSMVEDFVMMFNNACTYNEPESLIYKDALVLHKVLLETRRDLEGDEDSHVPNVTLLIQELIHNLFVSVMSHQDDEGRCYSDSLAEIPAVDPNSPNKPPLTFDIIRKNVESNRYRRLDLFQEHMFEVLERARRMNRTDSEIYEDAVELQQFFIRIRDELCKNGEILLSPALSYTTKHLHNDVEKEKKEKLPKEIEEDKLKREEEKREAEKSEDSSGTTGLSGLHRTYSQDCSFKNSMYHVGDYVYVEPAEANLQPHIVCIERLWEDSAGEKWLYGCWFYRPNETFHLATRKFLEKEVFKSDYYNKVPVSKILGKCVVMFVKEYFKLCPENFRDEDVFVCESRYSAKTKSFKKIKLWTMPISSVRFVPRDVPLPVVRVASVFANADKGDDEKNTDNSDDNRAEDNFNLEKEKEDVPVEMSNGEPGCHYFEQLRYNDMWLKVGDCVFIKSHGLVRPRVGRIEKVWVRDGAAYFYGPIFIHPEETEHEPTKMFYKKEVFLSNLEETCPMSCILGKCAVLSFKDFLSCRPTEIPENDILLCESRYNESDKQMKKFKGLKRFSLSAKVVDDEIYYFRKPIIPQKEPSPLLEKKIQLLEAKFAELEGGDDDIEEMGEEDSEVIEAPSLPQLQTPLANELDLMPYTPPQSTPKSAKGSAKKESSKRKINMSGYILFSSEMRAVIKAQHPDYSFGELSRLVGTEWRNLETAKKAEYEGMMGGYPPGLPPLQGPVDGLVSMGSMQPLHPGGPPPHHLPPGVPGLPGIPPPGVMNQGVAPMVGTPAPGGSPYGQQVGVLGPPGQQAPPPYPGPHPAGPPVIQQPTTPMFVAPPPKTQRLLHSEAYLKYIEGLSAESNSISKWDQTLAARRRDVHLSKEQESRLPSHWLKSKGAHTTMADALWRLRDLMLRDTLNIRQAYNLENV
UniProt Q80Z71, residues 27-1560: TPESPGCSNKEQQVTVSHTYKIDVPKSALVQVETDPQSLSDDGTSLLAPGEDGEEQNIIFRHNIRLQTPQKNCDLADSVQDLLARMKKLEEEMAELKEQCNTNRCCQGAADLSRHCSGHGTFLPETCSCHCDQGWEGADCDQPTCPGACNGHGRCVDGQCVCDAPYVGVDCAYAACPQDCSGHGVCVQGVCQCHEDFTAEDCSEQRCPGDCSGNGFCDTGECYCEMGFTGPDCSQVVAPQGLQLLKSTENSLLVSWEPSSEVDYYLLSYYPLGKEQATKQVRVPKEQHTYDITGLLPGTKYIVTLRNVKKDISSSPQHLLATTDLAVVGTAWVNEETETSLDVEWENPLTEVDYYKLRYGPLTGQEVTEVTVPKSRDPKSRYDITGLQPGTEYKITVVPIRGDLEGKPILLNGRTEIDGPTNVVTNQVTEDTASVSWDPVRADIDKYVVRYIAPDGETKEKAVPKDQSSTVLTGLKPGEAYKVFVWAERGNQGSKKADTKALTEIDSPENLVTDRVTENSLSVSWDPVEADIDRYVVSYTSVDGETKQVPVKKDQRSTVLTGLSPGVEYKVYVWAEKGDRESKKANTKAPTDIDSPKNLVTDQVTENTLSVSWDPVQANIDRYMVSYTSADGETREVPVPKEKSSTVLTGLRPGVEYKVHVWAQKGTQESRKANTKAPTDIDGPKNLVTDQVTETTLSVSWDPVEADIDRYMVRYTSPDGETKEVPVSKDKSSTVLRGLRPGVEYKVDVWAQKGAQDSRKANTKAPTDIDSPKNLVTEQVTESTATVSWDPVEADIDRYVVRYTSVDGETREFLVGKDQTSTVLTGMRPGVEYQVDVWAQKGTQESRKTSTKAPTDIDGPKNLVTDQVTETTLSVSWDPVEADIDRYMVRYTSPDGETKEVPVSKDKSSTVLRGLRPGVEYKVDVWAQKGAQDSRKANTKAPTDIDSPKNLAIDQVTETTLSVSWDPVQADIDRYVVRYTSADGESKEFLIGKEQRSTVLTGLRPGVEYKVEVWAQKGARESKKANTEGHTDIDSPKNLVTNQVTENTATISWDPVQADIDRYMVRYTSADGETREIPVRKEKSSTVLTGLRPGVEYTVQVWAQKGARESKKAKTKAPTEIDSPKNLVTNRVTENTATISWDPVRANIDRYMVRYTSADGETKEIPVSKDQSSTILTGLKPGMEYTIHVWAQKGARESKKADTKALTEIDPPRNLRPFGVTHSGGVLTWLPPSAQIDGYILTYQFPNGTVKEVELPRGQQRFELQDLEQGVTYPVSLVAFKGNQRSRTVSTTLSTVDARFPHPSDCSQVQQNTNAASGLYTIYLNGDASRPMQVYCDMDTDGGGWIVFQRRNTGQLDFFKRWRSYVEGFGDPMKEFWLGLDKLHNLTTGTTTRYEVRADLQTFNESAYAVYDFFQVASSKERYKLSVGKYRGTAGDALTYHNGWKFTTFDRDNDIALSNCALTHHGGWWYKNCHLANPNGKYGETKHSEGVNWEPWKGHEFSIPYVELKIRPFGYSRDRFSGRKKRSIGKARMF

Assay [1] has as its target T1, FLRT2 bait (Fc fusion) (mouse) (UniProt Q8BLU0).
T1 sequence: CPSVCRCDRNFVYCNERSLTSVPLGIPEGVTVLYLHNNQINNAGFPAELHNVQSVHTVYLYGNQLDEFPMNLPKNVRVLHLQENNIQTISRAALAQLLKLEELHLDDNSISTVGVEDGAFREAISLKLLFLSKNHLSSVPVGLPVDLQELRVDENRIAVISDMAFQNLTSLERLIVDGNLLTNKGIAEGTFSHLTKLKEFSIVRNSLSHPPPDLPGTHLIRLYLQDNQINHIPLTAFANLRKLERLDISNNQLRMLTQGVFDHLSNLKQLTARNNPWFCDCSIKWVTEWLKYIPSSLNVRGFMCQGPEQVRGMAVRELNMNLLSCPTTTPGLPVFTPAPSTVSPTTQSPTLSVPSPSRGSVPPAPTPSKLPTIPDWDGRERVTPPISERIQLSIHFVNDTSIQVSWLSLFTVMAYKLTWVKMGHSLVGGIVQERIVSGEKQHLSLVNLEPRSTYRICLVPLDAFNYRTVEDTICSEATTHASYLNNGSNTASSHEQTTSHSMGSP
Nature of the assay: ACAPseq (affinity capture of polyribosomes followed by RNAseq); bait-Fc (~10 ug) on Protein-G magnetic beads; 40 ug neonatal mouse brain polyribosomes in 600 ul binding buffer (25 mM Tris pH 7.5, 150 mM KCl, 15 mM MgCl2, 1 mM CaCl2, 250 mM sucrose, 0.5% Igepal-630, 0.5% sodium deoxycholate, cyclohexamide, heparin), overnight at 4°C; captured mRNA sequenced; only the target purified.

Another assay addresses T2, FLRT3-Fc (mouse) (UniProt Q8BGT1).
T2 sequence: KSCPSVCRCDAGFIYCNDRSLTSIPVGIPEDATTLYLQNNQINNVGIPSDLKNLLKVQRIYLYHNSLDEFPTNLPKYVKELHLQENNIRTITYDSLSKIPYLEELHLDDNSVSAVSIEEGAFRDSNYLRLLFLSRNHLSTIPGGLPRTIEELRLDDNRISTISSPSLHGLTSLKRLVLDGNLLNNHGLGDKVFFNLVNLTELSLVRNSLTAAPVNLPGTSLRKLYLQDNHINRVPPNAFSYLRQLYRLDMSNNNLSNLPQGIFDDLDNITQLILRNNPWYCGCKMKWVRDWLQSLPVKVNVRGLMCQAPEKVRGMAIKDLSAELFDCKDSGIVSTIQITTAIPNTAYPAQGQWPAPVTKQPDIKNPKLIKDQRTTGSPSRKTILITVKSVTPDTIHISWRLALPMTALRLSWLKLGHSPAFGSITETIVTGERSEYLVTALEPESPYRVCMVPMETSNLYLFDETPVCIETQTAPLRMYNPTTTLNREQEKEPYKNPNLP
The assay is described as above.

Assay [2] addresses T3, Frizzled4 on HEK293T cells (UniProt Q61088).
T3 sequence: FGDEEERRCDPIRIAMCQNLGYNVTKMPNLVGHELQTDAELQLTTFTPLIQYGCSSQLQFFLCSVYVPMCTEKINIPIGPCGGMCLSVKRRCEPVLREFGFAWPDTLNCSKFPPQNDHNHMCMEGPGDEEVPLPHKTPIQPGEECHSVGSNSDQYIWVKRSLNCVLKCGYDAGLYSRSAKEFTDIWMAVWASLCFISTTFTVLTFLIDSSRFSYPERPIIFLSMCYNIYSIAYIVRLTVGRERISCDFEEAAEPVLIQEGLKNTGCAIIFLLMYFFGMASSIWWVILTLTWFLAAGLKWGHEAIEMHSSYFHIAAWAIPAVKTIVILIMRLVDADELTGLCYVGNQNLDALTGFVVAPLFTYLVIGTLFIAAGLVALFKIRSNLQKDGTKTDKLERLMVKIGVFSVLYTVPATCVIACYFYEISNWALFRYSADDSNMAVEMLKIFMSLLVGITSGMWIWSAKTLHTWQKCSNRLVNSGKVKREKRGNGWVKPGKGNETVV
Nature of the assay: alkaline phosphatase fusion binding to live cells (AP histochemistry); AP fusion in ice-cold serum-free conditioned medium on live transfected HEK293T cells, 2 hr at 4°C.

The next assay deals with FGF21-Fc (human) (UniProt Q9NSA1). Nature of the assay: ACAPseq (affinity capture of polyribosomes followed by RNAseq); bait-Fc (~10 ug) on Protein-G magnetic beads; 40 ug neonatal mouse brain polyribosomes in 600 ul binding buffer (25 mM Tris pH 7.5, 150 mM KCl, 15 mM MgCl2, 1 mM CaCl2, 250 mM sucrose, 0.5% Igepal-630, 0.5% sodium deoxycholate, cyclohexamide, heparin), overnight at 4°C; captured mRNA sequenced; only the target purified.

A further assay concerns the target T4, LRTM2-Fc (mouse) (UniProt Q8BGX3).
T4 sequence: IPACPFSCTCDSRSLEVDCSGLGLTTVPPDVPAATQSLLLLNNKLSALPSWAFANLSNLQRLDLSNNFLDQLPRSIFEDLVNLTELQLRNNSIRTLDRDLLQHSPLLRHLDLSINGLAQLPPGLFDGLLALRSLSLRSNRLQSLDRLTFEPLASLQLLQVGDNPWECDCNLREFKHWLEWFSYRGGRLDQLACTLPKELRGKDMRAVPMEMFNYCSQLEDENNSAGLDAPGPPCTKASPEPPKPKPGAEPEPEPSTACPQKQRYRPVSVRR
Described as above.

For the substance “Adhesion G protein-coupled receptor L3 (nascent polypeptide on polyribosomes) (from UniProt Q80TS3 20-1537)”, the binding result (in assay [1]; with FLRT3-Fc (mouse)) was “binds” each time.
As for “Norrin-AP (from UniProt Q00604 25-133) (ligand)”, the binding result in assay [2] is on record as “binds”.
“PLEC (nascent polypeptide on polyribosomes) (from UniProt Q9QXS1 1-4691)”: the binding entry with FGF21-Fc (human) is “no binding”.
“Polybromo-1 (nascent polypeptide on polyribosomes) (from UniProt Q8BSQ9 1-1634)”: the binding entry in the assay with FLRT3-Fc (mouse) is “binds”.
Consider “TNC (nascent polypeptide on polyribosomes) (from UniProt Q80YX1 23-2110)”, for which, in the assay with LRTM2-Fc (mouse), the binding entry is recorded as “binds”.
On the same count and under the same terms, for “TNN (nascent polypeptide on polyribosomes) (from UniProt Q80Z71 27-1560)” the value was “binds”.
